Entries after “also recorded” stand apart in the source; their conditions may differ. For at least one compound, name, drawing or mass did not settle the structure.
Columns and labels:
[1] = tested on: 129.Mecp2^tm1.1Bird/+ females; assay: Survival of treated Mecp2 heterozygous females; type: in vivo, mouse; settings: fluvastatin 3 mg/kg s.c. 1x weekly from six weeks to 8 months; three vehicle-treated females died
[2] = tested on: 129.Mecp2^tm1.1Bird/+ females; assay: Liver lipid measurement, Mecp2 heterozygous females; type: in vivo, mouse; settings: assessed at eight months, p=0.045

CC(C)n1c(/C=C/C(O)CC(O)CC(=O)O)c(-c2ccc(F)cc2)c2ccccc21 (stereo not drawn) [fluvastatin]
survival / longevity of females [1]: rescued; also recorded: No fluvastatin-treated 129.Mecp2^tm1.1Bird/+ females died prior to eight months | elevated lipid concentration in livers / fatty liver disease, females [2]: improved | elevated lipid concentration in livers / fatty liver disease, females ([2]; listed as Fluvastatin): ameliorates

Reference: patent US20160193231A1, “RETT SYNDROME AND TREATMENTS THEREFORE” (RETT SYNDROME RESEARCH TRUST, priority 2013, published 2016)
